Reference: PubChem BioAssay AID1671190 (National Center for Advancing Translational Sciences (NCATS), 2021)
Screen size: about 580,000 compounds; about 6,100 (1.1%) were called active. Calls follow the shape of the dose curve; as a rule, active = well fitted inhibition curve with a large enough effect; inconclusive = small, poorly fitted or top-dose-only effect, or another doubt; inactive = no such curve, though single readings can be large or run the other way. Inconclusive results, whose numbers are uncertain, are shown. Potencies of inconclusive entries are doubtful fits and often do not repeat.

Chains of the proteins cited; added tags and fusions are not shown. Lines headed by an entry give the natural chain unless they say otherwise; changes in a name come on top.
UniProt P18054: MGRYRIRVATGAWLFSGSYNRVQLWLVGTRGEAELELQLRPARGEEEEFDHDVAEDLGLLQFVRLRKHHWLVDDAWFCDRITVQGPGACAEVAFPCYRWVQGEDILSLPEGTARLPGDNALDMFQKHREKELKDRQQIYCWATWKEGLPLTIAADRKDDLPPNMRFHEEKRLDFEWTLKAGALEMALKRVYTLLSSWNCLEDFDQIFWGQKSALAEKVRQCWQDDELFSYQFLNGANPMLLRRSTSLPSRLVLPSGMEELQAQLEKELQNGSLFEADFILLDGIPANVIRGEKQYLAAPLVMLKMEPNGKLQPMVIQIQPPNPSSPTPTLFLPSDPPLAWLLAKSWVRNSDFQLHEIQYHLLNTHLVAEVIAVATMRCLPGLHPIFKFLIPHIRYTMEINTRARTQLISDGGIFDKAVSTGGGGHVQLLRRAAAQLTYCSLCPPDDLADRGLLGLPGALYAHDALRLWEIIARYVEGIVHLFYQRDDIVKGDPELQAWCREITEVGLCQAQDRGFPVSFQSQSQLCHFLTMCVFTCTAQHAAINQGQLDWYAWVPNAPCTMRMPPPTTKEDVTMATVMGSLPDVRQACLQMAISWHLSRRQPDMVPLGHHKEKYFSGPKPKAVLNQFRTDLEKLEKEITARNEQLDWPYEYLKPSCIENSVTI

The molecules below were run against Polyunsaturated fatty acid lipoxygenase ALOX12 (Homo sapiens) (UniProt P18054) (assay: Primary qHTS assay for inhibitors of human arachidonate 12S-lipoxygenase (ALOX12): Round 2). Conditions: purified 12hLO, xylenol orange hydroperoxide absorbance; series mostly up to 108 µM.
Method in brief: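 Purified human 12hLO (150 nM final) in 25 mM Hepes, 0.01% Triton X-100, pH 7.0 was preincubated 15 min at room temperature with compound. Then 40 uM arachidonic acid was added, 30 min. Hydroperoxide was read by Fe-XO absorbance ratio 573/405 nm.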
Potency is read from the fitted curve at half-maximal effect.

SMILES | Potency
Cc1ccc(S(=O)(=O)Oc2ccc(/C=C3/C(=N)N4C(=NC3=O)SN=C4S(C)(=O)=O)cc2)cc1 | inconclusive: 50.1 µM [inhibitor, partial curve, poor fit]
O=C(Nc1ccc(C(=O)O)cc1)/C(=C\C=C\c1ccccc1)NC(=O)c1cccc(Br)c1 | inconclusive: 3.98 µM [inhibitor, full curve, poor fit]
CC(c1ccccc1)N1C(=O)c2ccc(C(=O)Nc3ccccc3C(=O)O)cc2C1=O (centres undefined) | inconclusive: 50.1 µM [inhibitor, partial curve, poor fit]
Cc1cccc(S(=O)(=O)Nc2nc3ccccc3nc2Nc2cccc(C(=O)O)c2)c1 | inconclusive: 3.98 µM [inhibitor, full curve, poor fit]
